Where a chain is given by its changes, count along the chain named. These are yes or no findings as the source states them, for the method shown. In cells and extracts the contact can be indirect. Some binding calls cover weakened binding; strength is not graded here. For some of these results: Tags and fused reporters may be left off the sequences shown. Each block holds one binder with its values, some of them ahead of it.
Columns and labels:
[1] = target: rat GST-AR domain fusion protein AR541-919/DBD+LBD (rat) (UniProt P15207); assay: GST-pulldown (GST-AR DBD+LBD on glutathione-agarose), Western blot with anti-DDC
[2] = target: rat GST-AR domain fusion protein AR541-919/DBD+LBD (rat) (UniProt P15207); assay: GST-pulldown, Western blot with anti-DDC (legend of FIG. 2A)
[3] = target: rat GST-AR domain fusion protein AR541-919/DBD+LBD (rat) (UniProt P15207); assay: GST-pulldown of [35S]-labeled in vitro translated protein, autoradiography

Amino acid sequences for entries named in this document (tags omitted). Residues count along the entry.
UniProt P15207, residues 524-902: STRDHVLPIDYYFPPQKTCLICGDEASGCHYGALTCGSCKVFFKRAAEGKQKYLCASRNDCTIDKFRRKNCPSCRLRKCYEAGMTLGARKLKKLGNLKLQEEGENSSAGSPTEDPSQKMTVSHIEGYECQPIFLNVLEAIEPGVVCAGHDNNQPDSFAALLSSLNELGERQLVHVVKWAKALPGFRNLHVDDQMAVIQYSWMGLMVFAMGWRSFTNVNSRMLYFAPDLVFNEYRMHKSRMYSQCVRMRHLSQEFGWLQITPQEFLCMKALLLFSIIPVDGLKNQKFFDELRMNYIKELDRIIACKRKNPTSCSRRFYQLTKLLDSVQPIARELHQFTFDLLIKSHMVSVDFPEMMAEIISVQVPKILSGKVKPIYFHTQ

binding [1]: binds
binding [2]: binds
B1: purified His-tagged-DDC protein (6x-His N-terminal fusion of dopa decarboxylase) (enzyme, human, UniProt P20711 2-480, looked up, not shown: small tags and cut ends)
chain: NASEFRRRGKEMVDYMANYMEGIEGRQVYPDVEPGYLRPLIPAAAPQEPDTFEDIINDVEKIIMPGVTHWHSPYFFAYFPTASSYPAMLADMLCGAIGCIGFSWAASPACTELETVMMDWLGKMLELPKAFLNEKAGEGGGVIQGSASEATLVALLAARTKVIHRLQAASPELTQAAIMEKLVAYSSDQAHSSVERAGLIGGVKLKAIPSDGNFAMRASALQEALERDKAAGLIPFFMVATLGTTTCCSFDNLLEVGPICNKEDIWLHVDAAYAGSAFICPEFRHLLNGVEFADSFNFNPHKWLLVNFDCSAMWVKKRTDLTGAFRLDPTYLKHSHQDSGLITDYRHWQIPLGRRFRSLKMWFVFRMYGVKGLQAYIRKHVQLSHEFESLVRQDPRFEICVEVILGLVCFRLKGSNKVNEALLQRINSAKKIHLVPCHLRDKFVLRFAICSRTVESAHVQRAWEHIKELAADVLRAERE

binding [3]: binds
B2: mutant DDC with Lys303Ile in the PLP cofactor binding site, in vitro transcribed/translated from pDEST12.2-mt-DDC (enzyme, UniProt P20711 1-480, looked up)
chain: MNASEFRRRGKEMVDYMANYMEGIEGRQVYPDVEPGYLRPLIPAAAPQEPDTFEDIINDVEKIIMPGVTHWHSPYFFAYFPTASSYPAMLADMLCGAIGCIGFSWAASPACTELETVMMDWLGKMLELPKAFLNEKAGEGGGVIQGSASEATLVALLAARTKVIHRLQAASPELTQAAIMEKLVAYSSDQAHSSVERAGLIGGVKLKAIPSDGNFAMRASALQEALERDKAAGLIPFFMVATLGTTTCCSFDNLLEVGPICNKEDIWLHVDAAYAGSAFICPEFRHLLNGVEFADSFNFNPHIWLLVNFDCSAMWVKKRTDLTGAFRLDPTYLKHSHQDSGLITDYRHWQIPLGRRFRSLKMWFVFRMYGVKGLQAYIRKHVQLSHEFESLVRQDPRFEICVEVILGLVCFRLKGSNKVNEALLQRINSAKKIHLVPCHLRDKFVLRFAICSRTVESAHVQRAWEHIKELAADVLRAERE
modifications: radiolabeled with [35S]-methionine

binding [3]: binds
B3: wild-type DDC, in vitro transcribed/translated from pDEST12.2-DDC (enzyme, UniProt P20711 1-480, looked up)
chain: B2 chain with I303K
modifications: radiolabeled with [35S]-methionine
